The text below walks through data of patent US20060252053A1 (Dana-Farber, published 2006).

Amino acid sequences for entries named in this document (tags omitted).
UniProt P02340: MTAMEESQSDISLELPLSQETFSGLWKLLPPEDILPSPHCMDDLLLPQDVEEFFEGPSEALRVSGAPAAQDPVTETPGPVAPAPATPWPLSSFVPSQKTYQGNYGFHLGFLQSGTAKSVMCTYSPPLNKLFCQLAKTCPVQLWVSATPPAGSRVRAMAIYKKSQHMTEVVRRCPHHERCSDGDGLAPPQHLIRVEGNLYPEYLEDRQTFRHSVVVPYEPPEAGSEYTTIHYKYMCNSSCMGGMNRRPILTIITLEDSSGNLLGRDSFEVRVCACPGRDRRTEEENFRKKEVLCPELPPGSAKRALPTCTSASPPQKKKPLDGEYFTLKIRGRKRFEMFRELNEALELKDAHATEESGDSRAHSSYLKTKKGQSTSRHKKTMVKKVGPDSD
UniProt O14727: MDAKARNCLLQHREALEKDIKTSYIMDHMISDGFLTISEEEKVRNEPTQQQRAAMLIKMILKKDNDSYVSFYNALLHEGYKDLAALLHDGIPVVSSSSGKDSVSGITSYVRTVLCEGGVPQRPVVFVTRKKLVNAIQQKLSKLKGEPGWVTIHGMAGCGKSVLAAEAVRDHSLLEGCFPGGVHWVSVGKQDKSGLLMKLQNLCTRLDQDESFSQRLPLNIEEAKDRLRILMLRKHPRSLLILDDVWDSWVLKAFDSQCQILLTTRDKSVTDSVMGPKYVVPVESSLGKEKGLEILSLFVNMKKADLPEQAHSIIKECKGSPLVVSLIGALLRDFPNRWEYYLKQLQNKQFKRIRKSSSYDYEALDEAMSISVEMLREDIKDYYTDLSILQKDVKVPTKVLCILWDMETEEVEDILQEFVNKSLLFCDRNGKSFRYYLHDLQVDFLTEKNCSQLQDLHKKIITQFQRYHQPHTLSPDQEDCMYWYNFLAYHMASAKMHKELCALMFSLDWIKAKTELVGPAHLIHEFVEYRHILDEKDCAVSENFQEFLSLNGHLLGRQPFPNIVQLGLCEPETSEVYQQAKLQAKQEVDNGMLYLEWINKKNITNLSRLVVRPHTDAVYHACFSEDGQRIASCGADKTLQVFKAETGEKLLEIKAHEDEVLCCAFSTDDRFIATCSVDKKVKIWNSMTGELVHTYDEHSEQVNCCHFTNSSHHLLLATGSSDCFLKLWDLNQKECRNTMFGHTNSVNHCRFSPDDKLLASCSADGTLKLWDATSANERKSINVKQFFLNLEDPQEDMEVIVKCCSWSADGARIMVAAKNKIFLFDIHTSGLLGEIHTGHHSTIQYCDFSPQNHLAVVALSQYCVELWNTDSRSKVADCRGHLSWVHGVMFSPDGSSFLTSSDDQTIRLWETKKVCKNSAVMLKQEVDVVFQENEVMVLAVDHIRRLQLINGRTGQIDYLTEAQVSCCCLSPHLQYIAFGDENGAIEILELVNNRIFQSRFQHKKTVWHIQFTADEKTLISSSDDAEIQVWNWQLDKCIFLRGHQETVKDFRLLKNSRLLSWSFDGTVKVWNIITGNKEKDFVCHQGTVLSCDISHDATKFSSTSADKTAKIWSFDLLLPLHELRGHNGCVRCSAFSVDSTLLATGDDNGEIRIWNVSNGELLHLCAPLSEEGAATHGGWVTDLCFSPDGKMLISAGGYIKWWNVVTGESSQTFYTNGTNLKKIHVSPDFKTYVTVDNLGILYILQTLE

No constants are given. Whether binding was seen depends on the method and setting. For part of these data: Binding seen in cells or lysates may run through a third protein. Some results given as binding are weak or reduced against the parent protein; the word gives no strength. For part of these data: Sequences can lack the tags named with a protein.

For experiment [1], the target named is T1, endogenous procaspase-7 (LNZ308, U87MG and 293T cells) (human) (UniProt P55210).
T1 sequence (looked up): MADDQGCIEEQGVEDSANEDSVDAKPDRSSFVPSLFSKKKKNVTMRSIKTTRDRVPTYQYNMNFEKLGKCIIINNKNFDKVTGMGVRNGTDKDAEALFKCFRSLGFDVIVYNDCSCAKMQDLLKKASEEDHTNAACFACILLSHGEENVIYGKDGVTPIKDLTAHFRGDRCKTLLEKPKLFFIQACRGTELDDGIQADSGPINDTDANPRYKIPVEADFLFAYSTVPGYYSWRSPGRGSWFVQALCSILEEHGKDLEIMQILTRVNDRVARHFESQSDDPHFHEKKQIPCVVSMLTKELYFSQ
Briefly: anti-L12-2 co-immunoprecipitation from LNZ308, U87MG and 293T lysates, caspase-7 western blot. On the technique in general: A western blot detects proteins with antibodies after separation by electrophoresis.

For another experiment, the target named is HA-tagged p53 (UniProt P04637). Briefly: anti-HA immunoprecipitation from U87MG cells, anti-V5 immunoblot.
Experiment [2] addresses p53 polypeptide immunoprecipitated from Ink4a/Arf deficient astrocytes (mouse) (UniProt P02340). Briefly: p53 immunoprecipitation from Ink4a/Arf deficient astrocytes, anti-V5 immunoblot.
The target in experiment [3] is endogenous Apaf-1 polypeptide of 293T cells (human) (UniProt O14727). Briefly: anti-V5 co-immunoprecipitation from 293T cells, Apaf-1 western blot.
Experiment [4] deals with T2, recombinant (His)6-caspase-7 polypeptide (UniProt P55210).
T2 sequence: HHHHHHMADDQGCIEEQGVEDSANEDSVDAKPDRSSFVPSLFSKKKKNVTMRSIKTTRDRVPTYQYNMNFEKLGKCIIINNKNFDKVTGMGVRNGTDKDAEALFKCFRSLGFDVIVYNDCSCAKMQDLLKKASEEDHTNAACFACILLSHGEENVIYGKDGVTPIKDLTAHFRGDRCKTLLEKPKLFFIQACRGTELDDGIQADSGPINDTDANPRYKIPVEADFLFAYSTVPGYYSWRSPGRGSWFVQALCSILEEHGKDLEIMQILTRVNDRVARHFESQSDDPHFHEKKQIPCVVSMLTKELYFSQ
Briefly: in vitro translated Bcl2L12-V5 precipitated with (His)6-caspase-7 on Ni-NTA beads, autoradiography.

Experiment [5] concerns the target endogenous Apaf-1 polypeptide of 293T cells (human) (UniProt O14727). Briefly: co-immunoprecipitation from 293T cells, Apaf-1 western blot.

B1: endogenous Bcl2L12 polypeptide of human cell lines (LNZ308, LN443, LN382, U87MG, 293T) (other)
chain: MGRPAGLFPPLCPFLGFRPEACWERHMQIERAPSVPPFLRWAGYRPGPVRRRGKVELIKFVRVQWRRPQVEWRRRRWGPGPGASMAGSEELGLREDTLRVLAAFLRRGEAAGSPVPTPPRSPAQEEPTDFLSRLRRCLPCSLGRGAAPSESPRPCSLPIRPCYGLEPGPATPDFYALVAQRLEQLVQEQLKSPPSPELQGPPSTEKEAILRRLVALLEEEAEVINQKLASDPALRSKLVRLSSDSFARLVELFCSRDDSSRPSRACPGPPPPSPEPLARLALAMELSRRVAGLGGTLAGLSVEHVHSFTPWIQAHGGWEGILAVSPVDLNLPLD
notes: Endogenous protein in lysates or fixed cells of human cell lines
As for B1, in experiment [1], the binding entry was “binds”.

B2: Bcl2L12-V5 polypeptide (V5 tagged wild-type human Bcl2L12, human amino acid sequence 1-334) (protein, not shown: small tags and cut ends)
chain: B1 chain
In the case of B2, the binding result (with HA-tagged p53; in experiment [2]; in experiment [3]; in experiment [4]) was “binds” each time.

B3: Bcl2L12-V5-ΔBH2 polypeptide (human amino acid sequence 1-310) (protein, not shown: small tags and cut ends)
chain: MGRPAGLFPPLCPFLGFRPEACWERHMQIERAPSVPPFLRWAGYRPGPVRRRGKVELIKFVRVQWRRPQVEWRRRRWGPGPGASMAGSEELGLREDTLRVLAAFLRRGEAAGSPVPTPPRSPAQEEPTDFLSRLRRCLPCSLGRGAAPSESPRPCSLPIRPCYGLEPGPATPDFYALVAQRLEQLVQEQLKSPPSPELQGPPSTEKEAILRRLVALLEEEAEVINQKLASDPALRSKLVRLSSDSFARLVELFCSRDDSSRPSRACPGPPPPSPEPLARLALAMELSRRVAGLGGTLAGLSVEHVHSFTP
Take B3: in experiment [5], the binding result is “binds”.
